Experimental data taken from paper doi:10.1101/2020.07.01.179515.
No constants are given. Whether binding was seen depends on the method and setting. In cells and extracts the contact can be indirect. Some results given as binding are weak or reduced against the parent protein; the word gives no strength. Sequences can lack the tags named with a protein.

Biological target: T1, Rps2-Flag (RPS2/uS5, endogenously C-terminally Flag-tagged) (S. cerevisiae) (UniProt P25443)
T1 sequence: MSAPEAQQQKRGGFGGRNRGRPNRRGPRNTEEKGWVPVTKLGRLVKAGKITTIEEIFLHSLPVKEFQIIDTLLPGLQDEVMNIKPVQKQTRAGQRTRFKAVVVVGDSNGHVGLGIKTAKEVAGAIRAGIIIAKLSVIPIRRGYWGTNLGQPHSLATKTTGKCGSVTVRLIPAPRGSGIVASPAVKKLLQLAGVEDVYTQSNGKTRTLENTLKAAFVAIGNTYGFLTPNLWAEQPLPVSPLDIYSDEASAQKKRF
Assay: co-IP

binding: binds
B1: Rps5/uS7 (protein, UniProt P26783 1-225)
chain: MSDTEAPVEVQEDFEVVEEFTPVVLATPIPEEVQQAQTEIKLFNKWSFEEVEVKDASLVDYVQVRQPIFVAHTAGRYANKRFRKAQCPIIERLTNSLMMNGRNNGKKLKAVRIIKHTLDIINVLTDQNPIQVVVDAITNTGPREDTTRVGGGGAARRQAVDVSPLRRVNQAIALLTIGAREAAFRNIKTIAETLAEELINAAKGSSTSYAIKKKDELERVAKSNR
